For two substances, binding results are on record in publication PMC11181667.

Protein sequences, listed by entry. Tags and fused reporters are not part of them.
UniProt Q13546: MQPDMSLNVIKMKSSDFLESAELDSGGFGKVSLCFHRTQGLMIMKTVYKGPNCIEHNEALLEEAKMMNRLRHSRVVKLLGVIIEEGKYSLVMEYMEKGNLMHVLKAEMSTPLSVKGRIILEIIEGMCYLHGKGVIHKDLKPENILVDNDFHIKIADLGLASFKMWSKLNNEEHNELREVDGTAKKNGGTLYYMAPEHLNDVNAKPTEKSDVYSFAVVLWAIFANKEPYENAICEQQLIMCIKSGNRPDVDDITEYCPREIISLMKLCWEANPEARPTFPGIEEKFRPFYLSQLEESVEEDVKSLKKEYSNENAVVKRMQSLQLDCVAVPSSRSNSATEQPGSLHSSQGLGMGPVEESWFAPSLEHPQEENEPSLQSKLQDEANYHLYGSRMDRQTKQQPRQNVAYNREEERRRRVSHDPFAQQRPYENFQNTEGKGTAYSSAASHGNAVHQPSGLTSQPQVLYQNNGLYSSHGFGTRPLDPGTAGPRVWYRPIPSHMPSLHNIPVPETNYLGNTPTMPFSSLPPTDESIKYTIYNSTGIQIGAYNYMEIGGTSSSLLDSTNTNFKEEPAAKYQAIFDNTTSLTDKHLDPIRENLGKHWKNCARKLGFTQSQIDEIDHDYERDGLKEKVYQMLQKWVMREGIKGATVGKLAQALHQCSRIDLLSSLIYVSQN

Results are given in words; binding and its absence hold for the method and conditions named. Binding seen in cells or lysates may run through a third protein. Some entries that bind do so weakly or less than the wild type.

The target in one assay is T1, OTUD6B (exogenous) (UniProt Q8N6M0).
T1 sequence: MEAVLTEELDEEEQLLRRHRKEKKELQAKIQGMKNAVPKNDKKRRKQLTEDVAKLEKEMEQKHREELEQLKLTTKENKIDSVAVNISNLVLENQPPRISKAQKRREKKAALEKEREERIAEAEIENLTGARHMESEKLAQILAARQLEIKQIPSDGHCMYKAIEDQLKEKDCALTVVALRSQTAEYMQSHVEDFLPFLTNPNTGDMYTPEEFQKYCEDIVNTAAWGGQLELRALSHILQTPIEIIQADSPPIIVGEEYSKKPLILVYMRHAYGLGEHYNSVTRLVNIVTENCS
Nature of the assay: co-IP; exogenous proteins, two-way; Western blot; tags and cells not given. (In general: In western blotting, separated proteins are transferred to a membrane and probed.)

The target of assay [1] is T2, OTUD6B (human (endogenous in LUAD cell lines)) (UniProt Q8N6M0).
T2 sequence: T1 sequence
Kind of assay: proximity ligation; in situ proximity ligation assay (PLA), said to be combined with fluorescence in situ hybridization (FISH), in cells.

Assay [2] deals with T2, OTUD6B (human (endogenous in LUAD cell lines)). Nature of the assay: co-IP; endogenous proteins, two-way; cell lysates in NP-40 lysis buffer, rabbit anti-OTUD6B or rabbit anti-RIPK1 antibody with protein G agarose at 4 °C overnight, Western blot.

For “RIPK1 (exogenous) (from UniProt Q13546 1-671) (enzyme)”, the binding entry with OTUD6B (exogenous) is listed as “binds”.
Turning to “Receptor interacting serine/threonine kinase 1 (RIPK1) (from UniProt Q13546 1-671) (enzyme)”, the binding entry in assay [1] and in assay [2] was “binds” throughout.
